Results deposited as PubChem BioAssay AID1224828 (NIAID, 2016).
The deposit covers about 17,000 reagents; this is a part drawn at random. Of all reagents, 762 (4.5%) got an active call. 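Active calls include both raised and lowered p65 entry, mostly lowered; wells with fewer than 50 cells lack a z-score.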 The raw values are shown without normalisation.

Assay: 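Knock-downs that increase or decrease LPS-induced p65 nuclear translocation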 (primary screen)
Cells: mouse RAW264.7 G9 macrophage reporter cells (GFP-p65, Tnf promoter-mCherry)
Reagent: siRNA pool against mouse genes, 100 nM
Duration: 2 days siRNA transfection, then 40 min LPS before fixation
Treatment: LPS (Salmonella minnesota R595) at 10 ng/ml
Read-out: 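Imaged p65 nuclear translocation ratio, normalised to the plate median, converted to robust z-scores and averaged across two replicates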
Direction: p65 translocation robust z-score: higher = more nuclear NF-kappaB p65 after LPS than the plate median; nuclear/cytoplasmic p65 ratio: higher = more nuclear NF-kappaB p65
Call rule: 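Active if robust z is above 3.3 (negative regulators) or below -1.56, the Tlr4 control median (positive regulators); activity score 50 or more; control wells not called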
Meaning of the calls: active = hit (p65 shift raised or lowered); inactive = no clear change

Zscan22 [SID315479018] — p65 translocation robust z-score = 0.44; nuclear/cytoplasmic p65 ratio, rep 1 = 1.7; nuclear/cytoplasmic p65 ratio, rep 2 = 1.61; low cell count flag = enough cells to score; call = inactive
Abcg1 [SID315465233] — p65 translocation robust z-score = 0.76; nuclear/cytoplasmic p65 ratio, rep 1 = 1.73; nuclear/cytoplasmic p65 ratio, rep 2 = 1.79; low cell count flag = enough cells to score; call = inactive
Hjurp [SID315481775] — p65 translocation robust z-score = -0.61; nuclear/cytoplasmic p65 ratio, rep 1 = 1.49; nuclear/cytoplasmic p65 ratio, rep 2 = 1.55; low cell count flag = enough cells to score; call = inactive
Phospho1 [SID315479374] — p65 translocation robust z-score = 0.7; nuclear/cytoplasmic p65 ratio, rep 1 = 1.54; nuclear/cytoplasmic p65 ratio, rep 2 = 1.55; low cell count flag = enough cells to score; call = inactive
Cntn3 [SID315468387] — p65 translocation robust z-score = -0.54; nuclear/cytoplasmic p65 ratio, rep 1 = 1.5; nuclear/cytoplasmic p65 ratio, rep 2 = 1.71; low cell count flag = enough cells to score; call = inactive
Ccl21a [SID315468597] — p65 translocation robust z-score = -0.23; nuclear/cytoplasmic p65 ratio, rep 1 = 1.74; nuclear/cytoplasmic p65 ratio, rep 2 = 1.35; low cell count flag = enough cells to score; call = inactive
9130019P16Rik [SID315481745] — p65 translocation robust z-score = 0.04; nuclear/cytoplasmic p65 ratio, rep 1 = 1.37; nuclear/cytoplasmic p65 ratio, rep 2 = 1.54; low cell count flag = enough cells to score; call = inactive
Vps37d [SID315477450] — p65 translocation robust z-score = 0.25; nuclear/cytoplasmic p65 ratio, rep 1 = 1.52; nuclear/cytoplasmic p65 ratio, rep 2 = 1.21; low cell count flag = enough cells to score; call = inactive
Tmem26 [SID315481448] — p65 translocation robust z-score = -0.21; nuclear/cytoplasmic p65 ratio, rep 1 = 1.49; nuclear/cytoplasmic p65 ratio, rep 2 = 1.74; low cell count flag = enough cells to score; call = inactive

Entries above whose target name starts with C or c (2):
Cntn3 [SID315468387] — p65 translocation robust z-score = -0.54; nuclear/cytoplasmic p65 ratio, rep 1 = 1.5; nuclear/cytoplasmic p65 ratio, rep 2 = 1.71; low cell count flag = enough cells to score; call = inactive
Ccl21a [SID315468597] — p65 translocation robust z-score = -0.23; nuclear/cytoplasmic p65 ratio, rep 1 = 1.74; nuclear/cytoplasmic p65 ratio, rep 2 = 1.35; low cell count flag = enough cells to score; call = inactive

Next entries follow:
Rgs4 [SID315468969] — nuclear/cytoplasmic p65 ratio, rep 1 = 1.41; nuclear/cytoplasmic p65 ratio, rep 2 = 1.13; low cell count flag = fewer than 50 cells per well; well left out of scoring; call = inactive
Smap2 [SID315473897] — nuclear/cytoplasmic p65 ratio, rep 1 = 1.49; nuclear/cytoplasmic p65 ratio, rep 2 = 1.21; low cell count flag = fewer than 50 cells per well; well left out of scoring; call = inactive
Cyp2a12 [SID315466222] — p65 translocation robust z-score = 0.27; nuclear/cytoplasmic p65 ratio, rep 1 = 1.67; nuclear/cytoplasmic p65 ratio, rep 2 = 1.76; low cell count flag = enough cells to score; call = inactive
H1f0 [SID315467099] — p65 translocation robust z-score = -0.77; nuclear/cytoplasmic p65 ratio, rep 1 = 1.28; nuclear/cytoplasmic p65 ratio, rep 2 = 1.32; low cell count flag = enough cells to score; call = inactive
Opa3 [SID315481901] — p65 translocation robust z-score = -0.53; nuclear/cytoplasmic p65 ratio, rep 1 = 1.36; nuclear/cytoplasmic p65 ratio, rep 2 = 1.33; low cell count flag = enough cells to score; call = inactive
Dclk2 [SID315474122] — p65 translocation robust z-score = -1.32; nuclear/cytoplasmic p65 ratio, rep 1 = 1.61; nuclear/cytoplasmic p65 ratio, rep 2 = 1.22; low cell count flag = enough cells to score; call = inactive
Gprasp3 [SID315481672] — p65 translocation robust z-score = 2.09; nuclear/cytoplasmic p65 ratio, rep 1 = 1.71; nuclear/cytoplasmic p65 ratio, rep 2 = 1.66; low cell count flag = enough cells to score; call = inactive
Tmco6 [SID315474405] — nuclear/cytoplasmic p65 ratio, rep 1 = 1.26; nuclear/cytoplasmic p65 ratio, rep 2 = 1.01; low cell count flag = fewer than 50 cells per well; well left out of scoring; call = inactive
Or9a2 [SID315480235] — nuclear/cytoplasmic p65 ratio, rep 1 = 1.6; nuclear/cytoplasmic p65 ratio, rep 2 = 1.07; low cell count flag = fewer than 50 cells per well; well left out of scoring; call = inactive
Slfn3 [SID315469320] — nuclear/cytoplasmic p65 ratio, rep 1 = 1.38; nuclear/cytoplasmic p65 ratio, rep 2 = 1.16; low cell count flag = fewer than 50 cells per well; well left out of scoring; call = inactive
Smo [SID315481163] — p65 translocation robust z-score = -0.46; nuclear/cytoplasmic p65 ratio, rep 1 = 1.45; nuclear/cytoplasmic p65 ratio, rep 2 = 1.64; low cell count flag = enough cells to score; call = inactive
Tbc1d8 [SID315471263] — p65 translocation robust z-score = 0.25; nuclear/cytoplasmic p65 ratio, rep 1 = 1.44; nuclear/cytoplasmic p65 ratio, rep 2 = 1.18; low cell count flag = enough cells to score; call = inactive
